Where a name gives a salt, the structure may show the parent alone. Some results were stated once for a whole list of compounds, not compound by compound.
target: T1, RIPK2 (Homo sapiens, UniProt O43353); experiment: Fluorescent polarization based binding assay at the ATP binding pocket of RIPK2; settings: full length FLAG His tagged RIPK2; competition with fluorescently labeled ATP competitive ligand (5 nM); mean of a minimum of 2 experiments
T1 construct: Full length FLAG His tagged RIPK2 was purified from a Baculovirus expression system; FLAG (N); 6His (N); made in house; host or cells: Spodoptera frugiperda (Sf9) insect cells, baculovirus
Source text: A fluorescent polarization based binding assay was developed to quantitate interaction of novel test compounds at the ATP binding pocket of RIPK2, by competition with a fluorescently labeled ATP competitive ligand. Full length FLAG His tagged RIPK2 was purified from a Baculovirus expression system and was used at a final assay concentration of twice the KDapparent. A fluorescent labeled ligand (5-({[2-({[3-({4-[(5-hydroxy-2-methylphenyl)amino]-2-pyrimidinyl}amino)phenyl]carbonyl}amino)ethyl]amino}carbonyl)-2-(6-hydroxy-3-oxo-3H-xanthen-9-yl)benzoic acid, prepared as described below) was used at a final assay concentration of 5 nM. Both the enzyme and ligand were prepared in solutions in 50 mM HEPES pH7.5, 150 mM NaCl, 10 mM MgCl2, 1 mM DTT, and 1 mM CHAPS. Test compounds were prepared in 100% DMSO and 100 nL was dispensed to individual wells of a multiwell plate. Next, 5 ul RIPK2 was added to the test compounds at twice the final assay concentration, and incubated at room temperature for 10 minutes. Following the incubation, 5 ul of the fluorescent labeled ligand solution, was added to each reaction, at twice the final assay concentration, and incubated at room temperature for at least 10 minutes. Finally, samples were read on an instrument capable of measuring fluorescent polarization. Test compound inhibition was expressed as percent (%) inhibition of internal assay controls.
For concentration response experiments, normalized data were fit and pIC50s determined using conventional techniques. For example, the following four parameter logistic equation may be used: y=A+((B−C))/(1+(10^x)/(10^C)^D), where: y is the % activity (% inhibition) at a specified compound concentration; A is the minimum % activity; B is the maximum % activity; C=log10(IC50); D=Hill slope; x=log10 (compound concentration [M]); and pIC50=(−C).
The pIC50s are averaged to determine a mean value, for a minimum of 2 experiments.
Full-length human RIPK2 (receptor-interacting serine-threonine kinase 2) cDNA was purchased from Invitrogen (Carlsbad, Calif., USA, Clone ID:IOH6368, RIPK2-pENTR 221). Gateway® LR cloning was used to site-specifically recombine RIPK2 downstream to an N-terminal FLAG-6His contained within the destination vector pDEST8-FLAG-His6 according to the protocol described by Invitrogen. Transfection into Spodoptera frugiperda (Sf9) insect cells was performed using Cellfectin® (Invitrogen), according to the manufacturer's protocol.

Protein sequences, listed by entry. Tags and fused reporters are not part of them.
UniProt O43353, whole entry: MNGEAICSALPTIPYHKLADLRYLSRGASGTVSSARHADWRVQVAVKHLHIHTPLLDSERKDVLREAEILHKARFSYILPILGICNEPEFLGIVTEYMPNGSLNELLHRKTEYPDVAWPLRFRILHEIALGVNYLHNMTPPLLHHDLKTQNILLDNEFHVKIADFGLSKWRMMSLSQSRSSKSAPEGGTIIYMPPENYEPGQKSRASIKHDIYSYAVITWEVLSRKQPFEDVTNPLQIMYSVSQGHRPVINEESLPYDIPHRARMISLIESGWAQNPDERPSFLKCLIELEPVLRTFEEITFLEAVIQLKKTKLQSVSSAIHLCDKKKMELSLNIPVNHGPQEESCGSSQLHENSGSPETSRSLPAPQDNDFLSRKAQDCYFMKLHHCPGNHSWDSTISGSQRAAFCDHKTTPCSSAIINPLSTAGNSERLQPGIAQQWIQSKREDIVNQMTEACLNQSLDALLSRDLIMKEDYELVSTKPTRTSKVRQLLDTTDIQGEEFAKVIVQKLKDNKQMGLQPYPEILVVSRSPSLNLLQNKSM

| SMILES | mean pIC50 |
| --- | --- |
| COc1ccc(Nc2nccc(Nc3c4c(nn3C)CCC4)n2)cc1OC [Example 82, N^2-[3,4-bis(methyloxy)phenyl]-N^4-(2-methyl-2,4,5,6-tetrahydro-cyclopenta[c]-pyrazol-3-yl)-2,4-pyrimidinediamine trifluoroacetate] | greater than or equal to 6.0 |
| CS(=O)(=O)c1cccc(Nc2nccc(Nc3n[nH]c4c3CCC4)n2)c1.O=C(O)C(F)(F)F [Example 84, N^2-[3-(methylsulfonyl)phenyl]-N^4-(1,4,5,6-tetrahydro-cyclopenta[c]-pyrazol-3-yl)-2,4-pyrimidinediamine trifluoroacetate] | greater than or equal to 6.0 |
| Cc1noc(Nc2ccnc(Nc3cccc(S(=O)(=O)C4CCCC4)c3)n2)c1C [Example 168, N2-[3-(CYCLOPENTYLSULFONYL)PHENYL]-N4-(3,4-DIMETHYL-5-ISOXAZOLYL)-2,4-PYRIMIDINE-DIAMINE] | greater than or equal to 6.0 |
| COc1ccc(-n2nc(C)c(C)c2Nc2ccnc(Nc3cccc(S(N)(=O)=O)c3)n2)cc1.O=C(O)C(F)(F)F [Example 32, 3-{[4-({3,4-dimethyl-1-[4-(methyloxy)phenyl]-1H-pyrazol-5-yl}amino)-2-pyrimidinyl]amino}benzenesulfonamide trifluoroacetate] | greater than or equal to 6.0 |
| Cc1cc(Nc2nccc(Nc3n[nH]c(C)c3C)n2)c(C)c(S(C)(=O)=O)c1 [Example 145, N^2-[2,5-dimethyl-3-(methylsulfonyl)phenyl]-N^4-(4,5-dimethyl-1H-pyrazol-3-yl)-2,4-pyrimidinediamine] | greater than or equal to 6.0 |
| COCCn1nc(C)c(C)c1Nc1ccnc(Nc2cccc(S(C)(=O)=O)c2)n1 [Example 136, N^4-{3,4-dimethyl-1-[2-(methyloxy)ethyl]-1H-pyrazol-5-yl}-N^2-[3-(methylsulfonyl)phenyl]-2,4-pyrimidinediamine] | greater than or equal to 6.0 |
| Cc1noc(Nc2ccnc(Nc3cccc(S(=O)(=O)C(C)C)c3)n2)c1C [Example 162, N4-(3,4-DIMETHYL-5-ISOXAZOLYL)-N2-{3-[(1-METHYLETHYL)SULFONYL]PHENYL}-2,4-PYRIMIDINE-DIAMINE] | greater than or equal to 6.0 |
| COc1ccc(Nc2nccc(Nc3cc(C)nn3C)n2)cc1OC [Example 56, N^2-[3,4-bis(methyloxy)phenyl]-N^4-(1,3-dimethyl-1H-pyrazol-5-yl)-2,4-pyrimidinediamine trifluoroacetate] | greater than or equal to 6.0 |
| COc1ccc(-n2nc(C)cc2Nc2ccnc(Nc3cc(OC)c(OC)c(OC)c3)n2)cc1 [Example 42, N^4-{3-methyl-1-[4-(methyloxy)phenyl]-1H-pyrazol-5-yl}-N^2-[3,4,5-tris(methyloxy)phenyl]-2,4-pyrimidinediamine] | greater than or equal to 6.0 |
| Cc1nn(C)c(Nc2ccnc(Nc3cccc(S(N)(=O)=O)c3)n2)c1C.O=C(O)C(F)(F)F [Example 31, 3-({4-[(1,3,4-trimethyl-1H-pyrazol-5-yl)amino]-2-pyrimidinyl}amino)benzenesulfonamide trifluoroacetate] | greater than or equal to 6.0 |
| COc1ccc(S(N)(=O)=O)cc1Nc1nccc(Nc2[nH]nc(C)c2C)n1 [Example 110, 3-({4-[(3,4-DIMETHYL-1H-PYRAZOL-5-YL)AMINO]-2-PYRIMIDINYL}AMINO)-4-(METHYLOXY)BENZENESULFONAMIDE] | greater than or equal to 6.0 |
| Cc1nn(CCO)c(Nc2ccnc(Nc3cccc(S(=O)(=O)N(C)C)c3)n2)c1C [Example 65, 3-[(4-{[1-(2-hydroxyethyl)-3,4-dimethyl-1H-pyrazol-5-yl]amino}-2-pyrimidinyl)amino]-N,N-dimethylbenzenesulfonamide] | greater than or equal to 6.0 |
| Cc1nn(C2CCOCC2)c(Nc2ccnc(Nc3cccc(S(C)(=O)=O)c3)n2)c1C.O=C(O)C(F)(F)F [Example 135, N^4-[3,4-dimethyl-1-(tetrahydro-2H-pyran-4-yl)-1H-pyrazol-5-yl]-N^2-[3-(methylsulfonyl)phenyl]-2,4-pyrimidinediamine trifluoroacetate] | greater than or equal to 6.0 |
| Cc1cc(Nc2nccc(Nc3[nH]nc(C)c3C)n2)cc(S(=O)(=O)C(C)C)c1 [Example 112, N4-(3,4-DIMETHYL-1H-PYRAZOL-5-YL)-N2-{3-METHYL-5-[(1-METHYLETHYL)SULFONYL]PHENYL}-2,4-PYRIMIDINEDIAMINE] | greater than or equal to 6.0 |
| Cc1[nH]nc(N(C)c2ccnc(Nc3cccc(S(=O)(=O)C(C)(C)C)c3)n2)c1C [Example 138, N2-{3-[(1,1-dimethylethyl)sulfonyl]phenyl}-N4-(4,5-dimethyl-1H-pyrazol-3-yl)-N4-methyl-2,4-pyrimidinediamine] | greater than or equal to 6.0 |
| CCN(CC)S(=O)(=O)c1cccc(Nc2nccc(Nc3n[nH]c(C)c3C)n2)c1OC [Example 119, 3-({4-[(4,5-dimethyl-1H-pyrazol-3-yl)amino]-2-pyrimidinyl}amino)-N,N-diethyl-2-(methyloxy)benzenesulfonamide] | greater than or equal to 6.0 |
| Cc1cc(Nc2nccc(Nc3onc(C)c3C)n2)cc(S(=O)(=O)C(C)(C)C)c1 [Example 171] | greater than or equal to 6.0 |
| Cc1[nH]nc(Nc2ccnc(Nc3ccc(F)c(S(=O)(=O)C(C)C)c3)n2)c1C [Example 116, N^4-(4,5-dimethyl-1H-pyrazol-3-yl)-N^2-{4-fluoro-3-[(1-methylethyl)sulfonyl]phenyl}-2,4-pyrimidinediamine] | greater than or equal to 6.0 |
| COc1cc(Nc2nccc(N(C)c3onc(C)c3C)n2)cc(S(C)(=O)=O)c1 [Example 166, N4-(3,4-DIMETHYL-5-ISOXAZOLYL)-N4-METHYL-N2-[3-(METHYLOXY)-5-(METHYL-SULFONYL)PHENYL]-2,4-PYRIMIDINE-DIAMINE] | greater than or equal to 6.0 |
| Cc1nn(C)c(Nc2ccnc(Nc3cccc(S(=O)(=O)C(C)C)c3)n2)c1C [Example 122, N^2-{3-[(1-methylethyl)sulfonyl]phenyl}-N^4-(1,3,4-trimethyl-1H-pyrazol-5-yl)-2,4-pyrimidinediamine] | greater than or equal to 6.0 |
| Cc1noc(N(C)c2ccnc(Nc3cccc(S(C)(=O)=O)c3)n2)c1C [Example 160, N4-(3,4-DIMETHYL-5-ISOXAZOLYL)-N4-METHYL-N2-[3-(METHYLSULFONYL)PHENYL]-2,4-PYRIMIDINE-DIAMINE] | greater than or equal to 6.0 |
| COCCn1nc(C)c(C)c1Nc1ccnc(Nc2cc(OC)c(OC)c(OC)c2)n1.O=C(O)C(F)(F)F [Example 148, N^4-{3,4-dimethyl-1-[2-(methyloxy)ethyl]-1H-pyrazol-5-yl}-N^2-[3,4,5-tris(methyloxy)phenyl]-2,4-pyrimidinediamine trifluoroacetate] | greater than or equal to 6.0 |
| COc1cc(Nc2nccc(Nc3c(C)c(C)nn3CC3CCOCC3)n2)cc(OC)c1OC.O=C(O)C(F)(F)F [Example 147, N^4-[3,4-dimethyl-1-(tetrahydro-2H-pyran-4-ylmethyl)-1H-pyrazol-5-yl]-N^2-[3,4,5-tris(methyloxy)phenyl]-2,4-pyrimidinediamine trifluoroacetate] | greater than or equal to 6.0 |
| Cc1cc(Nc2ccnc(Nc3ccc(N4CCN(C)CC4)cc3)n2)n(-c2ccc(C)c(C)c2)n1 [Example 39, N^4-[1-(3,4-dimethylphenyl)-3-methyl-1H-pyrazol-5-yl]-N^2-[4-(4-methyl-1-piperazinyl)phenyl]-2,4-pyrimidinediamine] | greater than or equal to 6.0 |
| Cc1cc(Nc2nccc(N(C)c3onc(C)c3C)n2)cc(S(=O)(=O)C(C)(C)C)c1 [Example 173] | greater than or equal to 6.0 |
| Cc1nn(CCO)c(Nc2ccnc(Nc3cccc(C(C)(C)C#N)c3)n2)c1C [Example 74, 2-{3-[(4-{[1-(2-hydroxyethyl)-3,4-dimethyl-1H-pyrazol-5-yl]amino}-2-pyrimidinyl)amino]phenyl}-2-methylpropane-nitrile] | greater than or equal to 6.0 |
| COc1ccc(-n2nc(C)cc2Nc2ccnc(Nc3ccc(OC)c(OC)c3)n2)cc1 [Example 24, N^2-[3,4-bis(methyloxy)phenyl]-N^4-{3-methyl-1-[4-(methyloxy)phenyl]-1H-pyrazol-5-yl}-2,4-pyrimidinediamine] | greater than or equal to 6.0 |

Reference: US20130023534A1, “PYRAZOLYL-PYRIMIDINES AS KINASE INHIBITORS” (priority 2010, published 2013)
